According to patent publication US20050208496A1, “Methods of testing for bronchial asthma or chronic obstructive pulmonary disease” (Genox Research, Inc., priority 2002, published 2005):

Tested on: mouse counterpart genes
Experiment: Mouse GeneChip (MG-U74A to MG-U74C) analysis of lung and trachea of the OVA antigen-exposed bronchial hypersensitivity model, S-Sal group versus S-OVA group
Assay type: in vivo
Settings: MASM5, mouse GeneChip expression ratio of the mouse counterpart gene (probe); for 1st: 1st experiment; for 2nd: 2nd experiment; for 3rd: 3rd experiment

Substance	1st	2nd	3rd
amphiregulin	0.8	0.56	0.7
ceruloplasmin	1.6	3.1	2.2
